Some entries repeat one wording, which the source may state once for all of them.
Test: Evaluation of deodorization property (odor scoring by seven examiners)
Details: immediately after production; total score of seven examiners, each 1 to 10 points (10 = completely odorless, 1 = strong odor)

Row | Structure (SMILES) | Evaluation of deodorization property
1 | CCCCC(CC)COCC(O)CO (stereo not shown) [Comparative Example 1, petroleum raw material-derived 2-ethylhexyl glyceryl ether D, reference compound] | ×
2 | CCCCC(CC)COCC(O)CO (stereo not shown) [Example 1, bio-derived 2-ethylhexyl glyceryl ether A] | ⊚ (when the total score was 60 points or more, the evaluation was ⊚)
3 | CCCCC(CC)COCC(O)CO (stereo not shown) [Example 2, bio-derived 2-ethylhexyl glyceryl ether B] | ⊚ (when the total score was 60 points or more, the evaluation was ⊚)
4 | CCCCC(CC)COCC(O)CO (stereo not shown) [Example 3, bio-derived 2-ethylhexyl glyceryl ether C] | ⊚ (when the total score was 60 points or more, the evaluation was ⊚)

From patent US12528755B2, “Method of producing bio-derived branched alkyl glyceryl ether, and bio-derived branched alkyl glyceryl ether produced by said method” (ADEKA CORPORATION, priority 2022, dated 2026)
